Measurements published in US20020048566A1, “Modulation of cellular apoptosis and methods for treating cancer” (priority 2000, published 2002).
For at least one compound, name, drawing or mass did not settle the structure.

How the values were obtained:
p21 mRNA in the thymus = test: Real time quantitative RT-PCR of p53 target genes in thymus after dexamethasone; assay type: in vivo, mice; conditions: p53-independent
[1] = test system: p21WAF1 mRNA in the spleen; test: Real time quantitative RT-PCR of p53 target genes in spleen after dexamethasone; assay type: in vivo, mice; conditions: dexamethasone 0.5 mg/animal i.p., 6 hours, p53 independent

With C[C@@H]1C[C@H]2[C@@H]3CCC4=CC(=O)C=C[C@]4(C)[C@@]3(F)[C@@H](O)C[C@]2(C)[C@@]1(O)C(=O)CO [dexamethasone] as the compound, how does the “p21 mRNA induction” value (p21 mRNA in the thymus) read?
Its value is “induced”.

And the “p21WAF1 mRNA induction” value [1]?
Its value is “over fourfold”.
